Measured values as given in publication doi:10.1101/560391 (bioRxiv, 2019).
Results are given in words; binding and its absence hold for the method and conditions named. Some binding calls cover weakened binding; strength is not graded here. For some assays here: Tags and fused reporters may be left off the sequences shown.

Experiments:
Assay in all cases: LacI/LacO tethering and co-recruitment in cells
[1] = molecular target: T1, GFP-LacI-dCENP-C (Drosophila) (UniProt Q9VHP9)
T1 sequence: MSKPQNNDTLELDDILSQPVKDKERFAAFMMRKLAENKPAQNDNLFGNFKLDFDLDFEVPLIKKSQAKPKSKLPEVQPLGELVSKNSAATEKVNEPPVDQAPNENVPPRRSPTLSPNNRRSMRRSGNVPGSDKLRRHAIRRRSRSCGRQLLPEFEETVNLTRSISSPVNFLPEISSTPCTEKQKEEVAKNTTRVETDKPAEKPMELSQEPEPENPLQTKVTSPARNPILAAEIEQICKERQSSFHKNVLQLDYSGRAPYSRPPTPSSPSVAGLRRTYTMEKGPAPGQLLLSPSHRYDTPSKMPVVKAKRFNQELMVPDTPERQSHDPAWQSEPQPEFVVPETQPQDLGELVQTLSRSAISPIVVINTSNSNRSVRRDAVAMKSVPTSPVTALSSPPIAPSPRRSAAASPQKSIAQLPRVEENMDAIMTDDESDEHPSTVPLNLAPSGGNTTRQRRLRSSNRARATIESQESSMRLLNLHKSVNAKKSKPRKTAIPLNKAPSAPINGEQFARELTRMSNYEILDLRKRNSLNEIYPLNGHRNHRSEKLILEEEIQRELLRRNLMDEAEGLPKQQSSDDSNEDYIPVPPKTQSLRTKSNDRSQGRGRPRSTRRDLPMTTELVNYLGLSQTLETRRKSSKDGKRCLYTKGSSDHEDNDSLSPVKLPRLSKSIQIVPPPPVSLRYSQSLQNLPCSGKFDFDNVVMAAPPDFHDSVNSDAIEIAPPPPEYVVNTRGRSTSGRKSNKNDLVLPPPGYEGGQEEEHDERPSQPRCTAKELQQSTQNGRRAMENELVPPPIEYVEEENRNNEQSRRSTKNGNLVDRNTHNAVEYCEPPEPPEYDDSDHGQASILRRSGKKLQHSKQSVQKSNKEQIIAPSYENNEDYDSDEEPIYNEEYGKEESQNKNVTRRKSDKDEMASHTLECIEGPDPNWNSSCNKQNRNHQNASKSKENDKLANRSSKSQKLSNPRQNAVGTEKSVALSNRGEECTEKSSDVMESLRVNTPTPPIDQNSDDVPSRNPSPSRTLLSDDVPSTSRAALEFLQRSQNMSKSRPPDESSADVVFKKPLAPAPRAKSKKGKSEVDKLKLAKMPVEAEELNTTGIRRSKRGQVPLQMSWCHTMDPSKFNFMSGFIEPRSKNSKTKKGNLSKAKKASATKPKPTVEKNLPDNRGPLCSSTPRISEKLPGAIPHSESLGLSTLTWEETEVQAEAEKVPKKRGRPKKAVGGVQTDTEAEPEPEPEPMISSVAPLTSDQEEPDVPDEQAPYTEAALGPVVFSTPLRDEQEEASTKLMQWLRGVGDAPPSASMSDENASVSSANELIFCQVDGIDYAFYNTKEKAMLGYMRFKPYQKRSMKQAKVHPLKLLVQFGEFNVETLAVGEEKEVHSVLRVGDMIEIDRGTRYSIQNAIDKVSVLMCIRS

[2] = molecular target: T2, GFP-LacI-dCENP-C(1009-1411) (Drosophila) (UniProt Q9VHP9)
T2 sequence: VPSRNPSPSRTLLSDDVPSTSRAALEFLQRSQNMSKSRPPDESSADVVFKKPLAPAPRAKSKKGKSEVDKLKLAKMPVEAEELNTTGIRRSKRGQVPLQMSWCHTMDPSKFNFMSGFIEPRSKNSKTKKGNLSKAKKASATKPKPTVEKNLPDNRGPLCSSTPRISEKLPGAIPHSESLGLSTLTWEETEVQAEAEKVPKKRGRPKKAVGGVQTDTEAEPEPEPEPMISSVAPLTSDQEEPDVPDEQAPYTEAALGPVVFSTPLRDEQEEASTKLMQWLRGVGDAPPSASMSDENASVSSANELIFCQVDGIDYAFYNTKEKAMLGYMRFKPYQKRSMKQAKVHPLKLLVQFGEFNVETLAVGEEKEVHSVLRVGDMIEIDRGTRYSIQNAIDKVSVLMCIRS

[3] = molecular target: dCENP-A-GFP-LacIw (Drosophila) (UniProt Q9V6Q2)
[4] = molecular target: T3, CAL1-GFP-LacI (Drosophila), Q9VEN2; details: remark: other sources report otherwise
T3 chain: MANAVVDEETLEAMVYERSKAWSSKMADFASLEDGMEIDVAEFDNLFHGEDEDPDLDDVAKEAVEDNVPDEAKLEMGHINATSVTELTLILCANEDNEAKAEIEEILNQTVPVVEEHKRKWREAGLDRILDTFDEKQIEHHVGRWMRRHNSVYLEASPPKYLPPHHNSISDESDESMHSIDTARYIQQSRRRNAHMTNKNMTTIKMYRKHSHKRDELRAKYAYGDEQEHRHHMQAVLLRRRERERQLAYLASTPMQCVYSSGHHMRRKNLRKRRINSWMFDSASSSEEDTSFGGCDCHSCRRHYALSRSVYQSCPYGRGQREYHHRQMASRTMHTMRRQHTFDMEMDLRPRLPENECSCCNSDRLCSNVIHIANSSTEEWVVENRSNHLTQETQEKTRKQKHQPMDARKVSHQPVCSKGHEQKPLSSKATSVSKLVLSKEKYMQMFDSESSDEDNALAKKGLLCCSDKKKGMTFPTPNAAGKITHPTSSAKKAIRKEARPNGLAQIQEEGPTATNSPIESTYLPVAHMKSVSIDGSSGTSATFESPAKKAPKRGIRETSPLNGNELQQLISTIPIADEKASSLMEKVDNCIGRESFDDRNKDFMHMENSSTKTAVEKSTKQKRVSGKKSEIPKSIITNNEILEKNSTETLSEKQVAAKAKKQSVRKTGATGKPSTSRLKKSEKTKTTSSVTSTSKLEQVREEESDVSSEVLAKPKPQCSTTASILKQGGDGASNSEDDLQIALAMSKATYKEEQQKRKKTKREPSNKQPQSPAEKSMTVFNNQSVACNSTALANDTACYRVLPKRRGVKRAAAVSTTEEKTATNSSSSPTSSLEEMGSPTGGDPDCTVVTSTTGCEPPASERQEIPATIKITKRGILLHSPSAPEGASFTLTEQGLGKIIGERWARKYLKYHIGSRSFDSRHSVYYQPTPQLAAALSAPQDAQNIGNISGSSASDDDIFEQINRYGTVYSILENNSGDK

[5] = molecular target: T4, dCENP-A (Drosophila), Q9V6Q2; details: remark: other sources report otherwise
T4 chain: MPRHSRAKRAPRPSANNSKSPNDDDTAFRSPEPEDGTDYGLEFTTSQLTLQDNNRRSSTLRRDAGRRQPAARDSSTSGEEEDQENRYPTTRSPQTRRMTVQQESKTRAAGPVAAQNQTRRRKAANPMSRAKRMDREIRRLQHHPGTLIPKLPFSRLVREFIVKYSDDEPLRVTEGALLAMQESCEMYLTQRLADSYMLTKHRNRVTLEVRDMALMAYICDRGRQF

Molecule: CAL1-HA (from UniProt Q9VEN2 1-979)
- binding [1]: binds
- binding [2]: binds
- binding [3]: binds

B1: CAL1-HA, Q9VEN2 1-979 (protein)
chain: MANAVVDEETLEAMVYERSKAWSSKMADFASLEDGMEIDVAEFDNLFHGEDEDPDLDDVAKEAVEDNVPDEAKLEMGHINATSVTELTLILCANEDNEAKAEIEEILNQTVPVVEEHKRKWREAGLDRILDTFDEKQIEHHVGRWMRRHNSVYLEASPPKYLPPHHNSISDESDESMHSIDTARYIQQSRRRNAHMTNKNMTTIKMYRKHSHKRDELRAKYAYGDEQEHRHHMQAVLLRRRERERQLAYLASTPMQCVYSSGHHMRRKNLRKRRINSWMFDSASSSEEDTSFGGCDCHSCRRHYALSRSVYQSCPYGRGQREYHHRQMASRTMHTMRRQHTFDMEMDLRPRLPENECSCCNSDRLCSNVIHIANSSTEEWVVENRSNHLTQETQEKTRKQKHQPMDARKVSHQPVCSKGHEQKPLSSKATSVSKLVLSKEKYMQMFDSESSDEDNALAKKGLLCCSDKKKGMTFPTPNAAGKITHPTSSAKKAIRKEARPNGLAQIQEEGPTATNSPIESTYLPVAHMKSVSIDGSSGTSATFESPAKKAPKRGIRETSPLNGNELQQLISTIPIADEKASSLMEKVDNCIGRESFDDRNKDFMHMENSSTKTAVEKSTKQKRVSGKKSEIPKSIITNNEILEKNSTETLSEKQVAAKAKKQSVRKTGATGKPSTSRLKKSEKTKTTSSVTSTSKLEQVREEESDVSSEVLAKPKPQCSTTASILKQGGDGASNSEDDLQIALAMSKATYKEEQQKRKKTKREPSNKQPQSPAEKSMTVFNNQSVACNSTALANDTACYRVLPKRRGVKRAAAVSTTEEKTATNSSSSPTSSLEEMGSPTGGDPDCTVVTSTTGCEPPASERQEIPATIKITKRGILLHSPSAPEGASFTLTEQGLGKIIGERWARKYLKYHIGSRSFDSRHSVYYQPTPQLAAALSAPQDAQNIGNISGSSASDDDIFEQINRYGTVYSILENNSGDK
- binding [4]: binds

B2: GFP-LacIw-dCENP-C, Q9VHP9 1-1411 (protein)
chain: MSKPQNNDTLELDDILSQPVKDKERFAAFMMRKLAENKPAQNDNLFGNFKLDFDLDFEVPLIKKSQAKPKSKLPEVQPLGELVSKNSAATEKVNEPPVDQAPNENVPPRRSPTLSPNNRRSMRRSGNVPGSDKLRRHAIRRRSRSCGRQLLPEFEETVNLTRSISSPVNFLPEISSTPCTEKQKEEVAKNTTRVETDKPAEKPMELSQEPEPENPLQTKVTSPARNPILAAEIEQICKERQSSFHKNVLQLDYSGRAPYSRPPTPSSPSVAGLRRTYTMEKGPAPGQLLLSPSHRYDTPSKMPVVKAKRFNQELMVPDTPERQSHDPAWQSEPQPEFVVPETQPQDLGELVQTLSRSAISPIVVINTSNSNRSVRRDAVAMKSVPTSPVTALSSPPIAPSPRRSAAASPQKSIAQLPRVEENMDAIMTDDESDEHPSTVPLNLAPSGGNTTRQRRLRSSNRARATIESQESSMRLLNLHKSVNAKKSKPRKTAIPLNKAPSAPINGEQFARELTRMSNYEILDLRKRNSLNEIYPLNGHRNHRSEKLILEEEIQRELLRRNLMDEAEGLPKQQSSDDSNEDYIPVPPKTQSLRTKSNDRSQGRGRPRSTRRDLPMTTELVNYLGLSQTLETRRKSSKDGKRCLYTKGSSDHEDNDSLSPVKLPRLSKSIQIVPPPPVSLRYSQSLQNLPCSGKFDFDNVVMAAPPDFHDSVNSDAIEIAPPPPEYVVNTRGRSTSGRKSNKNDLVLPPPGYEGGQEEEHDERPSQPRCTAKELQQSTQNGRRAMENELVPPPIEYVEEENRNNEQSRRSTKNGNLVDRNTHNAVEYCEPPEPPEYDDSDHGQASILRRSGKKLQHSKQSVQKSNKEQIIAPSYENNEDYDSDEEPIYNEEYGKEESQNKNVTRRKSDKDEMASHTLECIEGPDPNWNSSCNKQNRNHQNASKSKENDKLANRSSKSQKLSNPRQNAVGTEKSVALSNRGEECTEKSSDVMESLRVNTPTPPIDQNSDDVPSRNPSPSRTLLSDDVPSTSRAALEFLQRSQNMSKSRPPDESSADVVFKKPLAPAPRAKSKKGKSEVDKLKLAKMPVEAEELNTTGIRRSKRGQVPLQMSWCHTMDPSKFNFMSGFIEPRSKNSKTKKGNLSKAKKASATKPKPTVEKNLPDNRGPLCSSTPRISEKLPGAIPHSESLGLSTLTWEETEVQAEAEKVPKKRGRPKKAVGGVQTDTEAEPEPEPEPMISSVAPLTSDQEEPDVPDEQAPYTEAALGPVVFSTPLRDEQEEASTKLMQWLRGVGDAPPSASMSDENASVSSANELIFCQVDGIDYAFYNTKEKAMLGYMRFKPYQKRSMKQAKVHPLKLLVQFGEFNVETLAVGEEKEVHSVLRVGDMIEIDRGTRYSIQNAIDKVSVLMCIRS
- binding [5]: binds
